# Assay results published in the supplement of paper PMC8728848.
# This is one part of the list.
# B1: Sp8391B-bot-388-20-388 (Bacteroides ovatus) (protein)
# chain: GCQNNDENEQHYDNKLFISASNFTKEILFKAGDTNVETGLSVAIAKPEEHDIKVTMSPAPELLSTYKLAYYDETAVLLSEEHYSMPETSTTIKSGSIVSPELPIEFINTGELDIKTTYVLPVTIKSVEGIGVLQSAKTYYYVFRGASLINVVCNISRNRAYPDFKNDSKFNNLTENTMEILFKANSFPNTLNTLMGIESNYLLRIGDATIPNNQLQVATSVNNCTSADLQLESGKWYHVAVAFNKGNVKVYINGVEKLSGSTGKSSVSLGAKHTNEEDGSRCFWVGYSYKDDRYFDGVVSEVRIWNRALTAEEIQATNHFYTIEPESEGLIAYWKFDEGSGTVAKDYSVSGYDLTIEKEPKWESVSLPQ
# How the values were obtained:
# Experiment in all cases: glycan array binding signal (z-score within array); higher = stronger binding
# Settings in all cases: glycan notation: IUPAC condensed, linker removed
# Glc(b1-6)Glc = target: Glc(b1-6)Glc
# How it was run: (§1)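 The binding signal is a Z-score computed within each array and averaged over linkers. Arrays of the same protein sequence at different concentrations or buffers were also averaged together. Data originate from 3228 arrays in the Consortium for Functional Glycomics database, kept only where the protein sequence was available.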
# GlcA(b1-3)Gal = target: GlcA(b1-3)Gal
# How it was run: as §1
# GlcA(b1-3)GlcNAc = target: GlcA(b1-3)GlcNAc
# How it was run: as §1
# GlcA(b1-6)Gal = target: GlcA(b1-6)Gal
# How it was run: as §1
# [1] = target: GlcA3S(b1-3)Gal(b1-4)GlcNAc(b1-2)Man
# How it was run: as §1
# [2] = target: GlcA3S(b1-3)Gal(b1-4)GlcNAc(b1-3)Gal(b1-4)Glc
# How it was run: as §1
# [3] = target: GlcNAc(a1-3)Gal(b1-4)GlcNAc
# How it was run: as §1
# [4] = target: GlcNAc(a1-4)Gal(b1-3)GlcNAc
# How it was run: as §1
# [5] = target: GlcNAc(a1-4)Gal(b1-4)GalNAc
# How it was run: as §1
# [6] = target: GlcNAc(a1-4)Gal(b1-4)GlcNAc
# How it was run: as §1
# [7] = target: GlcNAc(a1-4)Gal(b1-4)GlcNAc(b1-3)Gal(b1-4)Glc
# How it was run: as §1
# [8] = target: GlcNAc(a1-4)Gal(b1-4)GlcNAc(b1-3)Gal(b1-4)GlcNAc
# How it was run: as §1
# [9] = target: GlcNAc(a1-4)Gal(b1-4)GlcNAc(b1-3)Gal(b1-4)GlcNAc(b1-3)Gal(b1-4)GlcNAc
# How it was run: as §1
# [10] = target: GlcNAc(a1-4)Gal(b1-4)GlcNAc(b1-3)Gal(b1-4)[Fuc(a1-3)]GlcNAc(b1-3)Gal(b1-4)[Fuc(a1-3)]GlcNAc
# How it was run: as §1
# [11] = target: GlcNAc(a1-6)Gal(b1-4)GlcNAc
# How it was run: as §1
# [12] = target: GlcNAc(b1-2)Gal(b1-3)GalNAc
# How it was run: as §1
# [13] = target: GlcNAc(b1-2)Man(a1-3)[GlcNAc(b1-2)Man(a1-6)]Man(b1-4)GlcNAc(b1-4)GlcNAc
# How it was run: as §1
# [14] = target: GlcNAc(b1-2)Man(a1-3)[GlcNAc(b1-2)Man(a1-6)]Man(b1-4)GlcNAc(b1-4)[Fuc(a1-6)]GlcNAc
# How it was run: as §1
# [15] = target: GlcNAc(b1-2)Man(a1-3)[GlcNAc(b1-4)][GlcNAc(b1-2)Man(a1-6)]Man(b1-4)GlcNAc(b1-4)GlcNAc
# How it was run: as §1
# [16] = target: GlcNAc(b1-2)Man(a1-3)[GlcNAc(b1-4)][GlcNAc(b1-2)Man(a1-6)]Man(b1-4)GlcNAc(b1-4)[Fuc(a1-6)]GlcNAc
# How it was run: as §1
# [17] = target: GlcNAc(b1-2)[GlcNAc(b1-4)]Man(a1-3)[GlcNAc(b1-2)Man(a1-6)]Man(b1-4)GlcNAc(b1-4)GlcNAc
# How it was run: as §1
# [18] = target: GlcNAc(b1-2)[GlcNAc(b1-4)]Man(a1-3)[GlcNAc(b1-4)][GlcNAc(b1-2)Man(a1-6)]Man(b1-4)GlcNAc(b1-4)GlcNAc
# How it was run: as §1
binder,measurement,setting,value
B1,glycan array binding signal (z-score),Glc(b1-6)Glc,0.413
same,glycan array binding signal (z-score),GlcA(b1-3)Gal,-0.821
same,glycan array binding signal (z-score),GlcA(b1-3)GlcNAc,-0.475
same,glycan array binding signal (z-score),GlcA(b1-6)Gal,2.12
same,glycan array binding signal (z-score),[1],-0.231
same,glycan array binding signal (z-score),[2],-1.22
same,glycan array binding signal (z-score),[3],-0.591
same,glycan array binding signal (z-score),[4],-0.29
same,glycan array binding signal (z-score),[5],0.025
same,glycan array binding signal (z-score),[6],-0.144
same,glycan array binding signal (z-score),[7],-0.143
same,glycan array binding signal (z-score),[8],-0.925
same,glycan array binding signal (z-score),[9],-0.76
same,glycan array binding signal (z-score),[10],0.692
same,glycan array binding signal (z-score),[11],-0.266
same,glycan array binding signal (z-score),[12],-0.108
same,glycan array binding signal (z-score),[13],-0.408
same,glycan array binding signal (z-score),[14],0.213
same,glycan array binding signal (z-score),[15],-0.101
same,glycan array binding signal (z-score),[16],0.694
same,glycan array binding signal (z-score),[17],-0.957
same,glycan array binding signal (z-score),[18],-0.344

# An excerpt of these results, with bars between the fields:
binder | measurement | setting | value
B1 | glycan array binding signal (z-score) | [4] | -0.29
same | glycan array binding signal (z-score) | [5] | 0.025
